PubChem BioAssay AID1259405 | NCATS – 2018
The whole screen tested about 50,000 reagents; below is an unselected part. Over the whole deposit, about 4,000 (8%) got an active call. 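Mouse siRNA library applied to hamster cells; one well for each siRNA.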 The numbers tell different reagents against one gene apart.

Aim: 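Knock-downs that lift recombinant protein yield in hamster ovary cells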 (primary screen)
Cells: Chinese hamster CHO-K1 ovary cells with stable secreted eGFP expression
Reagent: single siRNA against mouse genes, 0.8 pmol siRNA per well (2 µl of 400 nM stock)
Time to read-out: 3 days
Detection: 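Per-well intracellular GFP measured by laser scanning cytometry, plus viability from ATP luminescence, each relative to plate median of non-targeting control wells, in %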
Scale: GFP, % of control: higher = more GFP per well, higher productivity; viability (ATP), % of control: higher = more viable cells (more ATP)
Hit rule: 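a knock-down is called active if GFP reaches 120% or more of non-targeting control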

gene,reagent no.,"GFP, % of control","viability (ATP), % of control",call
Cox6a2,1,72.1,66.3,inactive
Cox6a2,2,24.8,63.7,inactive
Cox6a2,3,95.4,46.8,inactive
Stk40,1,58.4,80.7,inactive
Btrc,1,45.2,59.5,inactive
Btrc,2,93.6,57.5,inactive
Btrc,3,105,154,inactive
Itpk1,1,65,54.5,inactive
Itpk1,2,80,59.1,inactive
Nrn1,1,70.4,69.3,inactive
Nrn1,2,84.3,74.3,inactive
Nrn1,3,78.8,49.8,inactive
Myh14,1,50.3,53.8,inactive
Myh14,2,123,89.5,active
Rela,1,101,99.4,inactive
Rela,2,28.3,28.6,inactive
Rela,3,75,99.9,inactive
Tmem39a,1,82.8,38.9,inactive
Tmem39a,2,90,51.8,inactive
Tmem39a,3,135,86,active
Pcdhb12,1,67.3,83,inactive
Pcdhb12,2,80.1,57.3,inactive
Pcdhb12,3,71.3,82.5,inactive
Rai1,1,82.7,73.7,inactive
Rai1,2,150,94.4,active
Rai1,3,29.5,57.5,inactive
Mmp16,1,91.4,91.7,inactive
Mmp16,2,60.8,58.1,inactive
Rab20,1,138,140,active
Rab20,2,147,112,active
Rab20,3,75,77.1,inactive
Ntmt1,1,89.5,53,inactive
Ntmt1,2,68.9,71.3,inactive
Ntmt1,3,67.8,61.1,inactive
Eif5a2,1,59.9,86.7,inactive
Eif5a2,2,81.8,77.9,inactive
Eif5a2,3,83.7,112,inactive
Cdin1,1,26.3,37.4,inactive
Cdin1,2,100,121,inactive
Cdin1,3,99.6,94.6,inactive
Fat3,1,57.9,78.8,inactive
Fat3,2,118,65.1,inactive
Fat3,3,45.8,52.3,inactive
Mettl21a,1,67.5,77.9,inactive
Mettl21a,2,50.9,64.3,inactive
Mettl21a,3,55.9,61.6,inactive
Cyb5a,1,19.8,12.9,inactive
Cyb5a,2,52.7,79.5,inactive
Cyb5a,3,49.9,51.9,inactive
Chrna7,1,79.8,146,inactive
Chrna7,2,68,63.4,inactive
Chrna7,3,66,53.5,inactive
Vnn1,1,91.8,82.6,inactive
Vnn1,2,76.4,66,inactive
Vnn1,3,140,149,active
Cog1,1,117,120,inactive
Cog1,2,80.4,72.3,inactive
Cog1,3,88.8,107,inactive
Tfap2d,1,51.8,56,inactive
Tfap2d,2,69.8,69.6,inactive
Tfap2d,3,78.8,88.6,inactive
Marchf10,1,76.5,82.8,inactive
Marchf10,2,88.9,98,inactive
Marchf10,3,149,115,active
Or5p81,1,53.6,84.9,inactive
Or5p81,2,82.8,62,inactive
Or5p81,3,46.7,68.3,inactive
Slc67a1,1,104,93,inactive
Slc67a1,2,62.3,69.5,inactive
Slc67a1,3,106,90.2,inactive
Ppwd1,1,60.3,85.9,inactive
Ppwd1,2,76.8,87.7,inactive
Ppwd1,3,71.1,80.2,inactive
Agtpbp1,1,115,89.8,inactive
Agtpbp1,2,49.7,80.2,inactive
Agtpbp1,3,108,109,inactive
Mfn1,1,51.5,36,inactive
Mfn1,2,66.8,63.8,inactive
Mfn1,3,51.4,74.7,inactive
Foxg1,1,59.6,82.7,inactive
Foxg1,2,80.7,82.9,inactive
Cables1,1,77.2,87,inactive
Cables1,2,63.7,31.9,inactive
Cables1,3,97.7,121,inactive

Ordered by “viability (ATP), % of control” (highest first): some entries from above.
gene,reagent no.,"GFP, % of control","viability (ATP), % of control",call
Btrc,3,105,154,inactive
Nrn1,1,70.4,69.3,inactive
Itpk1,2,80,59.1,inactive
Itpk1,1,65,54.5,inactive
